In the supplement of paper PMC7666118:
Some of the results follow.

Sequences of proteins named here, by UniProt entry; tags and fusion partners are left off. A change or cut given only in a name is not applied to a line headed by its entry.
UniProt Q14254: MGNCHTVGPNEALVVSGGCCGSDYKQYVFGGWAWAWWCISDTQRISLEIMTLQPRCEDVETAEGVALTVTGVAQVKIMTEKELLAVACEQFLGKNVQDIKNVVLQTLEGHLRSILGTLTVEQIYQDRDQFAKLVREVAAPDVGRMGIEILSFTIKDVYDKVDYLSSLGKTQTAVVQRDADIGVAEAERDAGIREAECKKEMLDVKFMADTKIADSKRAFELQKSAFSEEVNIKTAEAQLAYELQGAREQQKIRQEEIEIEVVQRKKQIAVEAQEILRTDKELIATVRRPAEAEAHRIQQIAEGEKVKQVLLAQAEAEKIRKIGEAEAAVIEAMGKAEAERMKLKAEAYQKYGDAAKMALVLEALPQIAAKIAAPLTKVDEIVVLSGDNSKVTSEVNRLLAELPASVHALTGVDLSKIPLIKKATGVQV
UniProt O75223: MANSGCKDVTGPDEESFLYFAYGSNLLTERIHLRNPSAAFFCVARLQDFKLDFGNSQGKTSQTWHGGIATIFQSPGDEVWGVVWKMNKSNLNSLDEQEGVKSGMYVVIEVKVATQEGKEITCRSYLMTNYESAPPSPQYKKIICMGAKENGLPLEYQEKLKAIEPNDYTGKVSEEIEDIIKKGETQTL
UniProt P00367: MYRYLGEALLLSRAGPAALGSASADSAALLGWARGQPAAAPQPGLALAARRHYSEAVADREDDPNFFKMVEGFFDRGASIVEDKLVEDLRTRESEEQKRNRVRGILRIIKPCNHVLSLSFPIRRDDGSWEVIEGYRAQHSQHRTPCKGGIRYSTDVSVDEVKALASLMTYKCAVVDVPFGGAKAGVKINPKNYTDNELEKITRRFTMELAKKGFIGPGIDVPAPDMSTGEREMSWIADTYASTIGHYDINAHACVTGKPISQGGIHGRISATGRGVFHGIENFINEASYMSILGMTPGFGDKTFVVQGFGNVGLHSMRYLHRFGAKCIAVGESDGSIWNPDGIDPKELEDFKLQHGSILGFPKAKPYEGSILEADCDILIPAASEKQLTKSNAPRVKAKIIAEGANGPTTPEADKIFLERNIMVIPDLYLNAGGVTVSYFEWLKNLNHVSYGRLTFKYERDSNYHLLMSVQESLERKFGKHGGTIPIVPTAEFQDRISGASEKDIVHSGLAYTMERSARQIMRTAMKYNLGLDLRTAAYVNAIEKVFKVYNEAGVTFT
UniProt P22083, whole entry: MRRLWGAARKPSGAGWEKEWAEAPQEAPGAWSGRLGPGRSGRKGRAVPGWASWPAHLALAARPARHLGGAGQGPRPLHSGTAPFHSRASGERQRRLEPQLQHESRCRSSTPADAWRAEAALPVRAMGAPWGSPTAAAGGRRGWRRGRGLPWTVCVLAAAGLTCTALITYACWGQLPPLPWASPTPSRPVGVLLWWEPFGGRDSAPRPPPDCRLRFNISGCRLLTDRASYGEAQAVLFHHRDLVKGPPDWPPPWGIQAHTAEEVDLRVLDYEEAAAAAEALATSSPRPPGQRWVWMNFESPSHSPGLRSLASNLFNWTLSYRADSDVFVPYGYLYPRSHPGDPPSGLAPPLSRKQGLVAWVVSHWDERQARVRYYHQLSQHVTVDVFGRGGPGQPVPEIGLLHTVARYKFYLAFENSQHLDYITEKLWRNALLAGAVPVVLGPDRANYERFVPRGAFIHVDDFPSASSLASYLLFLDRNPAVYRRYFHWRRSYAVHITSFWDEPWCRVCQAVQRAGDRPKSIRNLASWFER
UniProt P26885: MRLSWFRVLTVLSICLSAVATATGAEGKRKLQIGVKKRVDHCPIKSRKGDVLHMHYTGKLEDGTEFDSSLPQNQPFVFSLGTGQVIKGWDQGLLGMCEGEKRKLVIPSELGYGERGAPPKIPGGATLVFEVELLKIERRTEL
UniProt Q9NXC2: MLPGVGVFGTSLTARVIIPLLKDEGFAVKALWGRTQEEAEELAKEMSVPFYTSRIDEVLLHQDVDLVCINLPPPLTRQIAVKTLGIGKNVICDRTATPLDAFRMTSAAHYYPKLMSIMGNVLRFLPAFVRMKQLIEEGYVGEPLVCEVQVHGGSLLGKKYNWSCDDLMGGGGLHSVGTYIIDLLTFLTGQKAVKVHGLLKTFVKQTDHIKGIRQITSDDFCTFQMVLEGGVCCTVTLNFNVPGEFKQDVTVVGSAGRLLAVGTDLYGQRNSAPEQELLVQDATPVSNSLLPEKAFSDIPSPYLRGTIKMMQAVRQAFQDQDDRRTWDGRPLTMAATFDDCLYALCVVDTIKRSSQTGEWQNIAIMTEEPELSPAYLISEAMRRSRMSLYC
UniProt Q8N2G8: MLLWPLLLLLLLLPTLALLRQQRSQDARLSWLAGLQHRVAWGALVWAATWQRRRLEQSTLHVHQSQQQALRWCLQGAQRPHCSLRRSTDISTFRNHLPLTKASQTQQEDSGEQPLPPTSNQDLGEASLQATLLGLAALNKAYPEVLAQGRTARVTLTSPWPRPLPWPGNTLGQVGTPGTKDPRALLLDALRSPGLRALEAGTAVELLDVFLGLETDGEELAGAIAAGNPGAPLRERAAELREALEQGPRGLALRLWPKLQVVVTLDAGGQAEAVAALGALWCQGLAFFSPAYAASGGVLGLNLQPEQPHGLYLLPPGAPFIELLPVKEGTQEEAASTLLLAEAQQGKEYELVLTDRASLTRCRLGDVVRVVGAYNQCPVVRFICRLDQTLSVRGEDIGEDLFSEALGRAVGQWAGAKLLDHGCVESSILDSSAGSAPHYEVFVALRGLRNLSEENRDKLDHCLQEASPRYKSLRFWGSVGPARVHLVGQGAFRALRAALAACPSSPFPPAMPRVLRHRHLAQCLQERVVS
UniProt Q01543: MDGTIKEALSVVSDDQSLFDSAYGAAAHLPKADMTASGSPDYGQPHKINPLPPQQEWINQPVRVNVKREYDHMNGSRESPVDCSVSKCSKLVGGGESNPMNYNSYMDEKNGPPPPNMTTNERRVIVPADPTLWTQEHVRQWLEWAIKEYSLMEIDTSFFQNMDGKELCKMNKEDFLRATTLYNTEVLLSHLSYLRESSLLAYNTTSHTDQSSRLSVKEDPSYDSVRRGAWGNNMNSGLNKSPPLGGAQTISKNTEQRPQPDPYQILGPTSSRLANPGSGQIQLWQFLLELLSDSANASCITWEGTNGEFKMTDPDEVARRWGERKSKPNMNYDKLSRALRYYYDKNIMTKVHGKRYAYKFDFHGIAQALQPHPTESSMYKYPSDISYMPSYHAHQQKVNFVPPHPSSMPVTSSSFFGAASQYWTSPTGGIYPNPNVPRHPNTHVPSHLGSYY
UniProt Q9Y680: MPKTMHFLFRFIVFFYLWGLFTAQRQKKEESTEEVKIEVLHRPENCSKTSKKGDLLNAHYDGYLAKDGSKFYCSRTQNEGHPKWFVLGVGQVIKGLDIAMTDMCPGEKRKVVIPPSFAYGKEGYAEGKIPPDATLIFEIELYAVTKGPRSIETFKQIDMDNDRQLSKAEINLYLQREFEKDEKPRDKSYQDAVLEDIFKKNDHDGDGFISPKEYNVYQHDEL
UniProt O75420: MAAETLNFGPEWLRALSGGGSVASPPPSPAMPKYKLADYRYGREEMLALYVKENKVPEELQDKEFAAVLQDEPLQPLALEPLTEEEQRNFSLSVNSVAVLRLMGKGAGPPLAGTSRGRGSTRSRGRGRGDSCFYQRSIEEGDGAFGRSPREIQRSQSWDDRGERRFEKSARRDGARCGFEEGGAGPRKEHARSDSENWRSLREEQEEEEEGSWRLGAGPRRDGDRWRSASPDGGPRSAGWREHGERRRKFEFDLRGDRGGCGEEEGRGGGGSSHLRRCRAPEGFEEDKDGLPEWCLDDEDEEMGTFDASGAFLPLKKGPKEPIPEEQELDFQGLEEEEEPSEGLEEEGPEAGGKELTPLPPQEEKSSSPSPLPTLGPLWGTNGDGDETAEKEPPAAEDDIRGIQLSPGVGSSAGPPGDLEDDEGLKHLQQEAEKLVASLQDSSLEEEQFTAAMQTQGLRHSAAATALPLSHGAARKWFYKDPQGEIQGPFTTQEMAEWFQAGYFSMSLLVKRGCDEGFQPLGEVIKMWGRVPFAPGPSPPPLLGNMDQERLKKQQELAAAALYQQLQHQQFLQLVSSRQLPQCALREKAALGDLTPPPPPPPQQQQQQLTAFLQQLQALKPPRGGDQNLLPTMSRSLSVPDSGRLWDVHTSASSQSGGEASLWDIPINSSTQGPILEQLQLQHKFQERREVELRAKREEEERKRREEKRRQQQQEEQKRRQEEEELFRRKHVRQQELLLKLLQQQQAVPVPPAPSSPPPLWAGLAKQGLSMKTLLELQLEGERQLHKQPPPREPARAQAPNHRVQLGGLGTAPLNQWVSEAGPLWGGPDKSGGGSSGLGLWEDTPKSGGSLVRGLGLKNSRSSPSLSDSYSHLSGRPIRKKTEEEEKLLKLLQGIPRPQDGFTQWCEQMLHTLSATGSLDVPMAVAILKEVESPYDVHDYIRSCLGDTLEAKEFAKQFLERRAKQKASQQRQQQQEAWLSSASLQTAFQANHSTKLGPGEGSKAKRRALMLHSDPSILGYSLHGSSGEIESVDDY
UniProt Q52LJ0: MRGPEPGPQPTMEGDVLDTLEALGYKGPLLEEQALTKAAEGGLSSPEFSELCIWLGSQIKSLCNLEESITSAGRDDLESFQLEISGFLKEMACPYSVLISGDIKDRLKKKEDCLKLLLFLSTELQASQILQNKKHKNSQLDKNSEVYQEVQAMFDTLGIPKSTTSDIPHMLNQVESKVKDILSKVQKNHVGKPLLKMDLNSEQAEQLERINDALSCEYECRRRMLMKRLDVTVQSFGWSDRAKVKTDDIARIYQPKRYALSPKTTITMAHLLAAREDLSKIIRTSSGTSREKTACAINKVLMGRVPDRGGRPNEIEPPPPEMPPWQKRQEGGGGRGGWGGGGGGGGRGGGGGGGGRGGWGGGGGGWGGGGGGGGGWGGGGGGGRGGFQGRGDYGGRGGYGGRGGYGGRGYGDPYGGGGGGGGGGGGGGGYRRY
UniProt P04066: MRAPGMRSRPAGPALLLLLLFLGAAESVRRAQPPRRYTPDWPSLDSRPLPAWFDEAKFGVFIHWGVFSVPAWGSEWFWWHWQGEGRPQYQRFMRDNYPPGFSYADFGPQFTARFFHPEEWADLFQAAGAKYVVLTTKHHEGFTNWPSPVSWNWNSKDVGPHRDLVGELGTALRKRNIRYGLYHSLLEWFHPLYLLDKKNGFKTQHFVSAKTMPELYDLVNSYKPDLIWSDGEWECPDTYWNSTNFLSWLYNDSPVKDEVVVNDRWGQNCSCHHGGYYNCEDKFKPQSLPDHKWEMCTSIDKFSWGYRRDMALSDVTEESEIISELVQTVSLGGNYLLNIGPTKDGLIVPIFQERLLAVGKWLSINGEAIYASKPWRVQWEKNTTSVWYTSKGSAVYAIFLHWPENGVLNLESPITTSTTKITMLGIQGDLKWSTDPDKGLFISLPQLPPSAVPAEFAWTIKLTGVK
UniProt P29992, whole entry: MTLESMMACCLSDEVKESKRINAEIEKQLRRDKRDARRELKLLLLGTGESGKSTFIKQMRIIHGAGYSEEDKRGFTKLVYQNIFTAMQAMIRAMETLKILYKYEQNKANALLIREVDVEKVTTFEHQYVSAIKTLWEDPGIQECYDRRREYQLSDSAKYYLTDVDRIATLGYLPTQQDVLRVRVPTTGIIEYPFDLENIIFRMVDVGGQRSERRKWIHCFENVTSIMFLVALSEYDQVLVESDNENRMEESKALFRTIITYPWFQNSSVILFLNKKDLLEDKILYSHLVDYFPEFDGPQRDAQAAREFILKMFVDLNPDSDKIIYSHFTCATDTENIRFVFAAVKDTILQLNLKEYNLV
UniProt Q9Y5Y0: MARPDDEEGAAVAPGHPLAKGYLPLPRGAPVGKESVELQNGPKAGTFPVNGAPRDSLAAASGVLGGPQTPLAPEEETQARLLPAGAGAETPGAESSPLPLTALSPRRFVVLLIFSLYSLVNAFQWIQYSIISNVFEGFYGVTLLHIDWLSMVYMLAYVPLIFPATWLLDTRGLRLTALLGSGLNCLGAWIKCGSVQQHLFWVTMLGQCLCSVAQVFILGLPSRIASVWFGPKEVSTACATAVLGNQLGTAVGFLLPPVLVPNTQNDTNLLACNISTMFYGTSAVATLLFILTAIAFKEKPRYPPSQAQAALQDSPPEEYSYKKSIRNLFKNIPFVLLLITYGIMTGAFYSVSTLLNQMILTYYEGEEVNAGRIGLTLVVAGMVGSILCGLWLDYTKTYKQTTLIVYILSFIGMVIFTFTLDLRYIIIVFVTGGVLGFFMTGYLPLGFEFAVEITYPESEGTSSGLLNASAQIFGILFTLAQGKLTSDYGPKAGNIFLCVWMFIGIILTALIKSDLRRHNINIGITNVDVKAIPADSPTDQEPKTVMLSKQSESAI
UniProt P49789: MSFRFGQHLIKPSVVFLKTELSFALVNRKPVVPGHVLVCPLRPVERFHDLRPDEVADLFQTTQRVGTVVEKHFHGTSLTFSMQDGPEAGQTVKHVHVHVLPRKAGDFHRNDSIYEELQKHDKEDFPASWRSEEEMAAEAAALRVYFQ

compound: COc1ccc(Cn2ccc3cc(C)c(C(=O)NO)cc32)cc1; assay: dose-dependent thermal stabilisation call (2D-TPP, DLPTP, 10% FDR) (binary (1 = stabilised)); higher = stabilised by the compound; conditions: system: HL-60 intact cells; concentration range 0.04-10 µM
Protocol: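 2D thermal proteome profiling in intact HL-60 cells treated with BRD-3811 (0, 0.04, 0.29, 2, 10 uM) for 90 min at 37 C, then heated 3 min at one of 12 temperatures (42-63.9 C). Soluble protein was quantified by TMT10 MS. The value is the DLPTP call of the paper: dose-dependent thermal stabilisation over all temperatures at 10% FDR (F-test of a dose-response against a flat model); one experiment, one call per tested protein.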

Target | dose-dependent thermal stabilisation call
GNAS | inactive: 0
FRY (UniProt Q5TBA9) | inactive: 0
GNB2 (UniProt P62879) | inactive: 0
FLOT2 (UniProt Q14254) | inactive: 0
GGCT (UniProt O75223) | inactive: 0
GA17 (UniProt Q7L2H7) | inactive: 0
GFPT1 (UniProt Q06210) | active: 1
FAM82A2 (UniProt Q96TC7) | inactive: 0
GLUD1 (UniProt P00367) | active: 1
FUT4 (UniProt P22083) | inactive: 0
FKBP2 (UniProt P26885) | inactive: 0
GALNT3 (UniProt Q14435) | inactive: 0
GFOD1 (UniProt Q9NXC2) | inactive: 0
GDI1 (UniProt P31150) | inactive: 0
GLG1 (UniProt Q92896) | inactive: 0
GHDC (UniProt Q8N2G8) | inactive: 0
GBAS (UniProt O75323) | inactive: 0
FLI1 (UniProt Q01543) | inactive: 0

Shown as comma-separated lines: part of the list above
Target,dose-dependent thermal stabilisation call
GALNT3 (UniProt Q14435),inactive: 0
GFOD1 (UniProt Q9NXC2),inactive: 0

Additional records.

Target | dose-dependent thermal stabilisation call
FKBP7 (UniProt Q9Y680) | inactive: 0
GBA (UniProt P04062) | inactive: 0
FTSJD2 (UniProt Q8N1G2) | inactive: 0
GALNT7 (UniProt Q86SF2) | inactive: 0
GIGYF1 (UniProt O75420) | inactive: 0
FLII (UniProt Q13045) | inactive: 0
FKBP8 (UniProt Q14318) | inactive: 0
FLJ20323 | inactive: 0
FAM98B (UniProt Q52LJ0) | inactive: 0
FTH1 (UniProt P02794) | inactive: 0
GDPD1 (UniProt Q8N9F7) | inactive: 0
GLMN (UniProt Q92990) | inactive: 0
FLJ11506 | inactive: 0
FUCA1 (UniProt P04066) | inactive: 0
GNA11 (UniProt P29992) | inactive: 0
FLVCR1 (UniProt Q9Y5Y0) | inactive: 0
GLB1 (UniProt P16278) | inactive: 0
FHIT (UniProt P49789) | inactive: 0
